Experimental data as given in the supplement of paper PMC12578635.
The other results are listed elsewhere or left out. Rule as the data show it: active = 150% or more and inactive = the rest. Repeats are few or missing, and single values can be far off.

Each compound was assayed on Staphylococcus aureus JE2-lux inside RAW 264.7 macrophages (assay: intracellular bacterial bioluminescence relative to DMSO vehicle; higher = higher intracellular bacterial metabolic activity). Conditions: 10 µM; treatment time 4 h; gentamicin 50 µg/ml.

Structure (SMILES) | intracellular bacterial bioluminescence
CCOC(=O)c1cc(-c2ccccn2)c(N2CCOCC2)s1 | inactive: 95.9%
Cn1c(SCC(=O)NCC2CCCO2)ncc(C(=O)Nc2ccccc2)c1=O (stereo not drawn) | inactive: 35.7%
Cc1c(NC(=O)c2ncoc2-c2ccc(F)cc2)c(=O)n(-c2ccccc2)n1C | inactive: 101%
Cc1ccc(-c2ocnc2C(=O)N2CCN(c3ncccn3)CC2)cc1 | inactive: 112%
O=C(CCCS(=O)(=O)c1ccccc1)Nc1nc2c(Cl)ccc(Cl)c2s1 | active: 192%
Cc1cc(NC2CCCCC2)n2c(nc3ccccc32)c1C#N | inactive: 137%
Cc1cc(C)c(NC(=O)c2sc3nc4c(cc3c2N)C(=O)CC(C)(C)C4)c(C)c1 | inactive: 95.3%
O=C(NCc1ccccc1)c1nn(-c2ccccc2)c2nc[nH]c(=O)c12 | inactive: 92.4%
O=C1C=C/C(=N/Nc2ccc3c(c2)OCO3)c2cccnc21 | inactive: 60%
O=CC1CSc2[nH]c(=O)sc2C1c1ccc(OCc2ccccc2)cc1 (stereo not drawn) | inactive: 29.6%
CCOc1cccc2c1Oc1nc(-c3ccc(OC)c(OC)c3)[nH]c(=O)c1C2 | inactive: 108%
Cc1nc2ccccc2c2nn(CC(=O)NC3CCCC3)c(=O)n12 | inactive: 96%
O=C(CSCc1nc(O)c2nnn(Cc3ccc(F)cc3)c2n1)Nc1cccc2ccccc12 | inactive: 99.2%
Cc1ccc(Cl)cc1N1CCN(C(=O)c2cnc(N3CCCCC3)c3ccccc23)CC1 | inactive: 108%
O=C(Cn1cnc2c(cnn2-c2ccc(F)cc2)c1=O)Nc1cccc([N+](=O)[O-])c1 | inactive: 95.9%
CCOC(=O)C(=O)NCC(c1ccco1)S(=O)(=O)c1ccccc1 (stereo not drawn) | inactive: 98.5%
COC(=O)c1cc(N/N=C2\C=CC(=O)c3ccccc32)cc(C(=O)OC)c1 | inactive: 88.2%
Cc1cc(N(C)C)nc(N2CCN(C(=O)c3ccc(F)cc3)CC2)n1 | inactive: 84.5%
O=C(Cn1nc(C(F)(F)F)c2cccn2c1=O)NC1CCCC1 | inactive: 91.4%
O=C(NCc1cccnc1)C(=O)Nc1cc2c3c(c1)CCC(=O)N3CCC2 | inactive: 102%

Exported as tab-separated lines: entries from further up
Structure (SMILES)	intracellular bacterial bioluminescence
Cc1cc(C)c(NC(=O)c2sc3nc4c(cc3c2N)C(=O)CC(C)(C)C4)c(C)c1	inactive: 95.3%
O=C(NCc1ccccc1)c1nn(-c2ccccc2)c2nc[nH]c(=O)c12	inactive: 92.4%
O=C1C=C/C(=N/Nc2ccc3c(c2)OCO3)c2cccnc21	inactive: 60%
O=CC1CSc2[nH]c(=O)sc2C1c1ccc(OCc2ccccc2)cc1 (stereo not drawn)	inactive: 29.6%
CCOc1cccc2c1Oc1nc(-c3ccc(OC)c(OC)c3)[nH]c(=O)c1C2	inactive: 108%
Cc1nc2ccccc2c2nn(CC(=O)NC3CCCC3)c(=O)n12	inactive: 96%
O=C(CSCc1nc(O)c2nnn(Cc3ccc(F)cc3)c2n1)Nc1cccc2ccccc12	inactive: 99.2%
Cc1ccc(Cl)cc1N1CCN(C(=O)c2cnc(N3CCCCC3)c3ccccc23)CC1	inactive: 108%
O=C(Cn1cnc2c(cnn2-c2ccc(F)cc2)c1=O)Nc1cccc([N+](=O)[O-])c1	inactive: 95.9%
CCOC(=O)C(=O)NCC(c1ccco1)S(=O)(=O)c1ccccc1 (stereo not drawn)	inactive: 98.5%

(more compounds)

Structure (SMILES) | intracellular bacterial bioluminescence
O=C(CCCN1C(=O)S/C(=C/c2ccccc2)C1=S)Nc1ccc(C(=O)O)cc1 | inactive: 119%
Cc1cccc(-c2nc3scc(CCNC(=O)c4ccc5c(c4)OCO5)n3n2)c1 | inactive: 94.2%
COc1ccc(-c2cc(C(F)(F)F)c(C#N)c(SCCC(=O)O)n2)cc1 | inactive: 73.6%
CC1CCc2nc(Nc3nc4ccc(F)cc4s3)sc2C1 (stereo not drawn) | inactive: 122%
CCCCSc1nc2c(c(=O)[nH]1)C(c1ccc(OC)cc1)C1=C(CCCC1=O)N2 (stereo not drawn) | inactive: 105%
O=C(NCc1ccccn1)c1cc2c(ccc3ccccc32)oc1=O | inactive: 93.1%
C=CCc1c(C)nc(-c2ccccc2)nc1Nc1ccc(C(=O)O)cc1 | inactive: 117%
NC(=O)C1Cc2ccccc2N1C(=O)c1ccc(S(=O)(=O)N2CCCC2)cc1 (stereo not drawn) | inactive: 112%
CCOC(=O)C(C)NC(=O)Nc1c(-c2cccnc2)[nH]c2ccc(Cl)cc12 (stereo not drawn) | inactive: 102%
COc1ccc(C(=O)NN2C(=O)c3ccccc3C2=O)cc1 | inactive: 88.6%
COc1cccc(NC(=O)CSc2nc(-c3ccccc3)no2)c1 | inactive: 112%
COc1cc2c(cc1OC)C(c1cc3cc(C)ccc3[nH]c1=O)N(C(=O)Nc1ccccc1)CC2 (stereo not drawn) | active: 163%
COc1ccc(C2C3=C(CCCC3=O)Nc3[nH]c(=O)[nH]c(=O)c32)cc1 (stereo not drawn) | inactive: 111%
CCOc1ccc(-n2c(C)c(C)n3c4c(=O)[nH]c(=O)n(C)c4nc23)cc1 | inactive: 120%
CC(=O)Nc1ccc2nc(Nc3nc4ccc(F)cc4s3)sc2c1 | inactive: 95%
O=C(Nc1ccccc1Br)c1csc2c1CCCC2 | inactive: 61.3%
Cc1ccc(-n2nc3ccc(NC(=O)C(C)NS(=O)(=O)c4ccc(C)cc4)cc3n2)cc1 (stereo not drawn) | inactive: 126%
COC(=O)c1ccccc1NC(=O)Nc1c(-c2ccncc2)[nH]c2c(Cl)cccc12 | inactive: 122%
NC(=O)c1cc2ccccc2o/c1=N\c1ccc(Cl)cc1Cl | inactive: 116%
O=C(Cn1cnc2ccccc21)Nc1ccccc1 | inactive: 90.7%

Structure (SMILES) | intracellular bacterial bioluminescence
CCCCNC(=O)CSc1nc(-c2ccc(C(C)C)cc2)no1 | inactive: 51%
COc1cccc(NC(=O)Cn2c(=O)cc(C)c3c(C)nn(-c4ccccc4)c32)c1 | inactive: 112%
CC(=O)NC(=O)c1cc2cc(Br)ccc2o/c1=N\c1ccc(F)cc1 | inactive: 106%
Cc1ccnc(NS(=O)(=O)c2ccc(NC(=O)c3cc(-c4cccs4)on3)cc2)n1 | inactive: 113%
Cc1c(C)n2c(SCC(=O)NCC3CCCO3)nnc2[nH]c1=O (stereo not drawn) | inactive: 109%
O=C(N/N=C/c1ccco1)c1cc(Br)ccc1O | inactive: 117%
Cc1ccc(NC(=O)Cn2cc(S(=O)(=O)c3ccccc3)c(=O)c3cc(C)ccc32)c(C)c1 | inactive: 98.8%
CN(CCCC(=O)Nc1nccs1)S(=O)(=O)c1ccc(Cl)cc1 | inactive: 92.2%
NC(=O)c1cc2c(ccc3ccccc32)o/c1=N\c1cc(F)ccc1F | inactive: 84.4%
CC(C)(C)c1cc(O)c2oc(=O)c(S(=O)(=O)c3ccc(F)cc3)cc2c1 | inactive: 101%
COc1ccc(-c2n[nH]c3nc(-c4ccc(F)cc4)cc(C(=O)NC(C)c4ccccc4)c23)cc1 (stereo not drawn) | active: 153%
O=C(Nc1c2c(nn1-c1ccc(Cl)cc1)CS(=O)(=O)C2)c1ccc(Cl)cc1Cl | inactive: 63.1%
COc1ccc2c(c1)cc(C)c1nn(CC(=O)Nc3cccc(C(C)=O)c3)c(=O)n12 | inactive: 31.8%
Cc1ccc(NS(=O)(=O)c2ccc3c(c2)C(=O)c2ccccc2C3=O)c(C)c1 | inactive: 103%
O=C(Nc1ccc(NC(=O)c2cccc3nccnc23)cc1)c1ccccn1 | inactive: 78.8%
CC(C)(C)C1CCc2c(sc3nc(CN4CCN(C(=O)c5ccco5)CC4)[nH]c(=O)c23)C1 (stereo not drawn) | inactive: 86.8%
Cc1ccc(-c2noc3c(=O)n(CCC(=O)Nc4nc5ccc(C)cc5s4)cnc23)cc1 | inactive: 42.4%
Cc1ccccc1C(NC(=O)c1[nH]c2ccccc2c1C)c1ccncc1 (stereo not drawn) | inactive: 105%
